Data as given in PubChem BioAssay AID504784 (Drosophila RNAi Screening Center, 2011)

Assay: 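Search for regulators of lipid droplet storage in oleate-fed fly cells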 (primary screen)
Cell system: Drosophila Kc167 embryonic cells
Reagent: long dsRNA against Drosophila genes, about 250 ng dsRNA per well
Duration: 4 days
Conditions: cells fed 400 µM oleic acid bound to BSA
Detection: 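Cells imaged and segmented; ratio of lipid droplet area to nuclear area, log-transformed, then normalised as a B-score over the screen; higher means more stored lipid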
Direction: droplet/nuclear area B-score: higher = more stored lipid (overstorage)
In all, the deposit lists about 17,000 reagents; below is a random part of those that have a named target and a result. 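Each column is one replicate's B-score; the combined score over replicates was not deposited, so single values may mislead.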 A plus sign joins genes that one reagent is predicted to hit.

| gene | DRSC id | droplet/nuclear area B-score, replicate 1 | droplet/nuclear area B-score, replicate 2 | droplet/nuclear area B-score, replicate 3 |
| --- | --- | --- | --- | --- |
| CG9302 | DRSC03191 | -0.268 | -0.645 | – |
| CG7512 | DRSC10863 | -1.34 | -1.84 | – |
| CAH4 (Carbonic anhydrase 4) | DRSC22433 | -0.0642 | 1.14 | – |
| CG15387 | DRSC00401 | -0.116 | 0.378 | – |
| CG6592 | DRSC10669 | 0.554 | 1.69 | – |
| Dp (DP transcription factor) | DRSC07402 | 2.45 | -0.0557 | – |
| CG10910 | DRSC06007 | 2.28 | -0.00306 | -0.0243 |
| CG15140 | DRSC02440 | 0.0763 | -0.82 | – |
| SelG (Selenoprotein G) | DRSC19808 | -0.507 | 0.0334 | -1.71 |
| Ahcy (Adenosylhomocysteinase) | DRSC19329 | 2.43 | -0.609 | 0.252 |
| CG3226 | DRSC18296 | 0.415 | 1.07 | -2.04 |
| ics (icarus) | DRSC01878 | -0.632 | -0.275 | – |
| CG32986 | DRSC02509 | -0.999 | -0.912 | – |
| RpL18 (Ribosomal protein L18) | DRSC11016 | 1.65 | 0.586 | 1.48 |
| RpL18 (Ribosomal protein L18) | DRSC22323 | 4.54 | 5.99 | – |
| CG13622 | DRSC14624 | -0.507 | 1.15 | – |
| Tm1 (Tropomyosin 1) | DRSC13082 | -0.561 | 1.64 | – |
| Tm1 (Tropomyosin 1) | DRSC13083 | -1.07 | 2.04 | 1.17 |
| Tm1 (Tropomyosin 1) | DRSC16886 | 1.41 | -5.42 | – |
| par-1 | DRSC05792 | 1.36 | 0.153 | – |
| par-1 | DRSC06098 | -0.516 | -0.00623 | – |
| par-1 | DRSC06616 | 2.66 | – | – |
| par-1 | DRSC07660 | 0.0489 | 0.568 | – |
| par-1 | DRSC07661 | -1.12 | -1.74 | – |
| Usp5 (Ubiquitin specific protease 5) | DRSC08244 | -1.38 | -0.498 | – |
| CG12347 | DRSC14502 | 0.0131 | -0.451 | – |
| CG10352 | DRSC19353 | -0.304 | -1.13 | -1.3 |
| CG14589 | DRSC04866 | 0.198 | 2.17 | – |
| Syx8 (Syntaxin 8) | DRSC10402 | -0.292 | -0.434 | 2.33 |
| Syx8 (Syntaxin 8) | DRSC22498 | -0.981 | -2.2 | – |
| Polr3D (RNA polymerase III subunit D) | DRSC10485 | 1.34 | 0.712 | 0.617 |
| CG12691 | DRSC17880 | 0.681 | 0.291 | – |
| CG31125 | DRSC13684 | -1.18 | 0.795 | – |
| sel (seele) | DRSC06232 | 0.0295 | -0.563 | 0.16 |
| CG7568 | DRSC16259 | -0.12 | 0.836 | – |
| Tmem43 (Transmembrane protein 43) | DRSC10964 | 2.57 | -0.156 | – |
| Dph5 (Diphthamide methyltransferase) | DRSC16653 | 0.223 | -0.716 | – |
| Tcs3 (Threonyl-carbamoyl synthesis 3) | DRSC10461 | 0.0349 | -0.216 | – |
| CG32795 | DRSC18609 | -0.852 | -1.8 | – |
| CG32795 | DRSC18610 | 0.0175 | -0.785 | – |
| fig (fos intronic gene) | DRSC16270 | 0.909 | -0.943 | – |
| CG8032 | DRSC16365 | 0.234 | 0.911 | – |
| CG2972 | DRSC18250 | 0.71 | -0.00225 | 1.04 |
| prd (paired) | DRSC03597 | 0.45 | 0.95 | – |
| PIP82 | DRSC18694 | 0.908 | 0.0332 | – |
| Pde9 (Phosphodiesterase 9) | DRSC19746 | -1.41 | -0.0594 | 0.0734 |
| Pde9 (Phosphodiesterase 9) | DRSC19874 | -0.112 | -0.206 | -1.19 |
| Pde9 (Phosphodiesterase 9) | DRSC19875 | 1.87 | 1.03 | 0.746 |
| Pde9 (Phosphodiesterase 9) | DRSC19876 | -1.88 | -1.81 | -0.455 |
| CG4297 | DRSC00651 | 0.74 | -0.767 | – |
| MFS15 (Major Facilitator Superfamily Transporter 15) | DRSC06523 | 0.338 | 0.218 | – |

14 entries from above in another layout.
gene | DRSC id | droplet/nuclear area B-score, replicate 1 | droplet/nuclear area B-score, replicate 2 | droplet/nuclear area B-score, replicate 3
SelG (Selenoprotein G) | DRSC19808 | -0.507 | 0.0334 | -1.71
Ahcy (Adenosylhomocysteinase) | DRSC19329 | 2.43 | -0.609 | 0.252
CG3226 | DRSC18296 | 0.415 | 1.07 | -2.04
ics (icarus) | DRSC01878 | -0.632 | -0.275 | –
CG32986 | DRSC02509 | -0.999 | -0.912 | –
RpL18 (Ribosomal protein L18) | DRSC11016 | 1.65 | 0.586 | 1.48
RpL18 (Ribosomal protein L18) | DRSC22323 | 4.54 | 5.99 | –
CG13622 | DRSC14624 | -0.507 | 1.15 | –
Tm1 (Tropomyosin 1) | DRSC13082 | -0.561 | 1.64 | –
Tm1 (Tropomyosin 1) | DRSC13083 | -1.07 | 2.04 | 1.17
Tm1 (Tropomyosin 1) | DRSC16886 | 1.41 | -5.42 | –
par-1 | DRSC05792 | 1.36 | 0.153 | –
par-1 | DRSC06098 | -0.516 | -0.00623 | –
par-1 | DRSC06616 | 2.66 | – | –

The results go on.
| gene | DRSC id | droplet/nuclear area B-score, replicate 1 | droplet/nuclear area B-score, replicate 2 | droplet/nuclear area B-score, replicate 3 |
| --- | --- | --- | --- | --- |
| Nepl12 (Neprilysin-like 12) | DRSC16411 | 0.00293 | -0.388 | – |
| dlg1 (discs large 1) | DRSC18896 | 0.414 | 0.378 | – |
| dlg1 (discs large 1) | DRSC19767 | -0.121 | 1.93 | 3.1 |
| dlg1 (discs large 1) | DRSC20324 | -0.092 | -0.705 | -0.0684 |
| CG42634 + CG42635 | DRSC02450 | 1.64 | 0.388 | – |
| Cpes (Ceramide phosphoethanolamine synthase) | DRSC04475 | 1.48 | 0.314 | – |
| xmas | DRSC21306 | -0.421 | 0.364 | – |
| xmas | DRSC22178 | 3.8 | -0.0687 | – |
| HemK1 (HemK methyltransferase 1) | DRSC03253 | 0.307 | -0.636 | – |
| so (sine oculis) | DRSC07693 | -0.0436 | 0.191 | -1.63 |
| so (sine oculis) | DRSC23096 | 0.374 | -0.146 | – |
| CG31199 | DRSC15284 | -0.845 | -0.432 | – |
| CG5388 | DRSC15789 | 0.902 | 0.887 | – |
| CG6709 + Hez | DRSC10165 | 1.41 | -0.101 | – |
| CG6709 + Hez | DRSC10698 | -0.651 | -0.348 | – |
| CG33191 + Pif1B | DRSC12706 | 0.0251 | -0.1 | – |
| Arfip (Arfaptin) | DRSC15179 | -1.75 | 2.68 | – |
| Cyp12d1-d + Cyp12d1-p | DRSC21507 | 1.23 | -0.119 | – |
| CG12035 | DRSC08238 | 0.161 | -0.093 | – |
| unc-119 | DRSC18846 | 0.388 | -1.58 | – |
| CG16956 | DRSC02544 | -0.588 | -1.27 | – |
| CG12012 | DRSC08220 | -0.163 | -1.54 | – |
| cid (centromere identifier) | DRSC05429 | 0.678 | -0.807 | – |
| cid (centromere identifier) | DRSC07592 | 1.25 | -1.04 | – |
| ORY (Occludin-Related Y) | DRSC22883 | 2.67 | -0.572 | – |
| Usp1 (Ubiquitin specific protease 1) | DRSC14155 | 0.77 | – | – |
| CG6325 | DRSC16020 | -0.0442 | 2.55 | – |
| CG3634 | DRSC11747 | 0.327 | -0.424 | – |
| Amyrel (Amylase related) | DRSC05920 | – | 0.116 | – |
| PIG-A (Phosphatidylinositol glycan anchor biosynthesis class A) | DRSC06982 | 0.794 | -0.697 | – |
| Mks1 (Meckel syndrome, type 1) | DRSC19697 | 1.12 | 0.915 | 4.09 |
| RpS19a (Ribosomal protein S19a) | DRSC20281 | 2.2 | 4.67 | – |
